PubChem BioAssay AID1259274 | Sanger Institute | 2017

- Screen: 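siRNA screen of kinases for partners that act in synergy with targeted drugs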 (primary screen)
- Cell system: human RKO colorectal cancer cells
- Knock-down reagent: siRNA pool against human genes
- Conditions: anchor drugs BYL719 at 1 µM, cetuximab at 5 µg/ml or trametinib at 10 nM; DMSO vehicle as the no-drug arm
- Detection: 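Viability of cells versus control pool 2 (non-targeting) averaged across replicates; knock-down-only robust z-score; for every anchor drug (BYL719, cetuximab, trametinib) a synergy score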
- Reading the numbers: viability z-score, siRNA alone: higher = more viable cells; low values mean essential gene; viability, siRNA alone, vehicle: higher = more viable cells
- Active means: 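Essential when the robust viability z-score with siRNA only falls below -3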
- Meaning of the calls: active = essential when knocked down alone; inactive = no change alone
This is a random part of 794 reagents. 11 of all reagents (1.4%) were called active. 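Calls rest on knock-down without drug only; synergy scores with anchor drugs were not used for the essential call.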 No viability above 1 is reported: the scale is capped. Not all columns of the deposit are shown. The record does not give: the amount of reagent, the time to read-out.

For NEK9 the deposit lists viability z-score, siRNA alone 0.879; viability, siRNA alone, vehicle (fraction of control) = 0.973; inactive.
STK32B gave viability z-score, siRNA alone -0.974; viability, siRNA alone, vehicle (fraction of control) = 0.815; inactive.
Knock-down of CSNK1D gave: viability z-score, siRNA alone 0.477; viability, siRNA alone, vehicle (fraction of control) = 0.939; inactive.
Against BUB1, the entry reads viability z-score, siRNA alone 0.314; viability, siRNA alone, vehicle (fraction of control) = 0.925; inactive.
After knock-down of ALPK2, the record shows viability z-score, siRNA alone 0.673; viability, siRNA alone, vehicle (fraction of control) = 0.956; inactive.
PRKCZ gave viability z-score, siRNA alone -1.23; viability, siRNA alone, vehicle (fraction of control) = 0.793; inactive.
After knock-down of RIOK2, the record shows viability z-score, siRNA alone 0.12; viability, siRNA alone, vehicle (fraction of control) = 0.908; inactive.
Depletion of HCK resulted in: viability z-score, siRNA alone 0.0042; viability, siRNA alone, vehicle (fraction of control) = 0.898; inactive.
With knock-down of ACVR2A, the screen gave viability z-score, siRNA alone 1.19; viability, siRNA alone, vehicle (fraction of control) = 1; inactive.
CDK14 showed viability z-score, siRNA alone 1.19; viability, siRNA alone, vehicle (fraction of control) = 1; inactive.
Silencing of BRD3 resulted in: viability z-score, siRNA alone 0.55; viability, siRNA alone, vehicle (fraction of control) = 0.945; inactive.
DYRK3 showed viability z-score, siRNA alone 1.13; viability, siRNA alone, vehicle (fraction of control) = 0.995; inactive.
With knock-down of PRKAB1, the screen gave viability z-score, siRNA alone -0.951; viability, siRNA alone, vehicle (fraction of control) = 0.817; inactive.
Against RAD21 the deposit lists viability z-score, siRNA alone -0.907; viability, siRNA alone, vehicle (fraction of control) = 0.82; inactive.
After knock-down of IGF2R the results were viability z-score, siRNA alone 1.19; viability, siRNA alone, vehicle (fraction of control) = 1; inactive.
With knock-down of SPEG, the record shows viability z-score, siRNA alone -0.623; viability, siRNA alone, vehicle (fraction of control) = 0.845; inactive.
Knock-down of PIK3R3 came out at: viability z-score, siRNA alone 0.443; viability, siRNA alone, vehicle (fraction of control) = 0.936; inactive.
For GALK2 the deposit lists viability z-score, siRNA alone 1.09; viability, siRNA alone, vehicle (fraction of control) = 0.991; inactive.
After knock-down of PRKG2, the screen gave viability z-score, siRNA alone 1.19; viability, siRNA alone, vehicle (fraction of control) = 1; inactive.
Silencing of LATS2 gave: viability z-score, siRNA alone 1.19; viability, siRNA alone, vehicle (fraction of control) = 1; inactive.
Against MAP3K12 the deposit lists viability z-score, siRNA alone -0.252; viability, siRNA alone, vehicle (fraction of control) = 0.876; inactive.

3 successive entries already listed, for reference:
PRKCZ → viability z-score, siRNA alone = -1.23; viability, siRNA alone, vehicle (fraction of control) = 0.793; call = inactive
RIOK2 → viability z-score, siRNA alone = 0.12; viability, siRNA alone, vehicle (fraction of control) = 0.908; call = inactive
HCK → viability z-score, siRNA alone = 0.0042; viability, siRNA alone, vehicle (fraction of control) = 0.898; call = inactive

Next results follow.
Knock-down of MELK gave: viability z-score, siRNA alone 0.797; viability, siRNA alone, vehicle (fraction of control) = 0.966; inactive.
After knock-down of PHKA1 the results were viability z-score, siRNA alone -0.281; viability, siRNA alone, vehicle (fraction of control) = 0.874; inactive.
Knock-down of PIM3 gave: viability z-score, siRNA alone 1.12; viability, siRNA alone, vehicle (fraction of control) = 0.994; inactive.
Against BUB1B, the values are viability z-score, siRNA alone -0.325; viability, siRNA alone, vehicle (fraction of control) = 0.87; inactive.
With knock-down of RYK, the screen gave viability z-score, siRNA alone -0.214; viability, siRNA alone, vehicle (fraction of control) = 0.88; inactive.
For PGK1, the values are viability z-score, siRNA alone 0.131; viability, siRNA alone, vehicle (fraction of control) = 0.909; inactive.
CHD9 gave viability z-score, siRNA alone 1.19; viability, siRNA alone, vehicle (fraction of control) = 1; inactive.
With knock-down of RPS6KB1 the results were viability z-score, siRNA alone -0.992; viability, siRNA alone, vehicle (fraction of control) = 0.813; inactive.
PDPK1 scored viability z-score, siRNA alone -2.65; viability, siRNA alone, vehicle (fraction of control) = 0.671; inactive.
With knock-down of CKMT1B, the screen gave viability z-score, siRNA alone 0.493; viability, siRNA alone, vehicle (fraction of control) = 0.94; inactive.
With knock-down of DLG2 the results were viability z-score, siRNA alone 0.338; viability, siRNA alone, vehicle (fraction of control) = 0.927; inactive.
For SHPK the deposit lists viability z-score, siRNA alone -1.2; viability, siRNA alone, vehicle (fraction of control) = 0.795; inactive.
After knock-down of NUP107, the screen gave viability z-score, siRNA alone -2; viability, siRNA alone, vehicle (fraction of control) = 0.727; inactive.
With knock-down of PKDCC, the screen gave viability z-score, siRNA alone -0.3; viability, siRNA alone, vehicle (fraction of control) = 0.872; inactive.
With knock-down of CDK3, the record shows viability z-score, siRNA alone -0.276; viability, siRNA alone, vehicle (fraction of control) = 0.874; inactive.
